# Assay results reported in PubChem BioAssay AID493014 (National Center for Advancing Translational Sciences (NCATS), 2011).
# Screen size: about 340,000 compounds; about 170 (0.05%) were called active. The shares of active, inactive and inconclusive entries below differ from those in the screen. Calls follow the shape of the dose curve; as a rule, active = well fitted inhibition curve with a large enough effect in the signal ratio, with a control signal flat (not every such curve was filed as active); inconclusive = small, poorly fitted or top-dose-only effect, or effect the other way, or a change in a side signal; inactive = flat fitted curve, though single readings scatter; the % refers to the signal ratio. A potency beside an inconclusive call is a rough fit, not a confirmed value.
# Experiment: qHTS Assay to Find Inhibitors of Chronic Active B-Cell Receptor Signaling;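 as to activity change, negative = inhibition: plate controls were basal doxycycline-induced cells for no effect and cells given 10 µM MG132 for full effect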
# Settings: ABC-DLBCL IkBa-CBG/CBR reporter, luminescence ratio (green luciferase fused to IkBa over red control in TMD8 lymphoma cells), 4 h; activity change, negative = inhibition: at 46.1 µM (top of the series)
# In short: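 Compounds up to 46 uM were incubated four hours with TMD8 cells whose green CBG68 luciferase is fused to IkappaBalpha; red CBR luminescence normalised the signal, and concentration-effect curves were fitted to fusion, red and ratio data.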
# Potency is read from the fitted curve at half-maximal effect.
Structure (SMILES),"activity change, negative = inhibition",Potency
COc1ccc(N=NC2C(=O)N(c3ccccc3)N=C2C)cc1 (configuration not stated),inconclusive: 1.17%,
Cc1cccc(NC(=S)N(CCCN2CCOCC2)Cc2cn(C)c3ccccc23)c1,inconclusive: -3.27%,
O=C(Nc1nnc(CSCc2ccc(Cl)cc2)s1)c1cccc([N+](=O)[O-])c1,inconclusive: -10.3%,
O=C(O)/C=C/c1ccc(S(=O)(=O)NCc2cccnc2)cc1,inactive: -3.19%,
COc1cccc(CNc2ccc([N+](=O)[O-])cc2Cl)c1O,inactive: 0.268%,
COc1ccc(CC(=O)Nc2ccc(N3CCN(c4ccc(OC)cc4)CC3)c(C#N)c2)cc1,inconclusive: -0.851%,
Cc1nn(CC(=O)OCC(=O)c2ccccc2)c(C)c1[N+](=O)[O-],inactive: -0.121%,
C=C(C)Cn1c(-c2cccs2)n[nH]c1=S,inactive: 8.31%,
CCCCOC(=O)Nc1ccc(C(C)C)cc1,inconclusive: 18.2%,
COc1ccc(C)cc1N1CC(C(=O)OCc2nc(N)nc(Nc3ccccc3C)n2)CC1=O (configuration not stated),inconclusive: -13.5%,
COc1ccc(S(=O)(=O)Nc2cccc3c2O[C@@H](CN(C)Cc2ccc(C(=O)O)cc2)[C@@H](C)CN([C@H](C)CO)C3=O)cc1,inactive: -0.755%,
Cc1ccc(N(C)S(=O)(=O)c2cc3c(cc2C)NC(=O)CO3)cc1,inconclusive: 19.9%,
Cc1c(N=Cc2ccc(O)c(Br)c2)cccc1[N+](=O)[O-],inactive: 1.15%,
O=[N+]([O-])c1cccc2c(N3CCOCC3)ccnc12,inactive: -10.1%,
Cc1cc(C)c2[nH]c(O)c(N=NC(=S)NCC3CCCO3)c2c1 (configuration not stated),inactive: 3.65%,
Cc1ccc(NC(NC(=O)Cc2ccccc2)C(Cl)(Cl)Cl)cc1 (configuration not stated),inconclusive: -13.5%,
CC(C)(C)c1ccc(C(=O)NNc2ncnc3c2cnn3-c2ccccc2)cc1,inactive: 13.9%,
CCOc1ccc2nc(SCC(=O)Nc3ccc(S(=O)(=O)N4CCCC4)cc3)c(C)cc2c1,inactive: 0.0474%,
O=C(COc1ccccc1)NCC(c1cccs1)S(=O)(=O)c1ccc(Cl)cc1 (configuration not stated),inconclusive: -28.1%,
C[C@@H]1CC[C@]2(C(=O)O)CC[C@]3(C)C(=CCC4[C@@]5(C)CC[C@H](O)[C@@](C)(C(=O)O)C5CC[C@]43C)C2[C@]1(C)O (some centres not stated),inconclusive: 1.73%,
O=C(Nc1ccccc1F)c1ccc(S(=O)(=O)N2CCCCCC2)cc1,inconclusive: -0.951%,

# Six entries from above, set out differently.
Structure (SMILES)	activity change, negative = inhibition	Potency
COc1ccc(C)cc1N1CC(C(=O)OCc2nc(N)nc(Nc3ccccc3C)n2)CC1=O (configuration not stated)	inconclusive: -13.5%	
COc1ccc(S(=O)(=O)Nc2cccc3c2O[C@@H](CN(C)Cc2ccc(C(=O)O)cc2)[C@@H](C)CN([C@H](C)CO)C3=O)cc1	inactive: -0.755%	
Cc1ccc(N(C)S(=O)(=O)c2cc3c(cc2C)NC(=O)CO3)cc1	inconclusive: 19.9%	
Cc1c(N=Cc2ccc(O)c(Br)c2)cccc1[N+](=O)[O-]	inactive: 1.15%	
O=[N+]([O-])c1cccc2c(N3CCOCC3)ccnc12	inactive: -10.1%	
Cc1cc(C)c2[nH]c(O)c(N=NC(=S)NCC3CCCO3)c2c1 (configuration not stated)	inactive: 3.65%	

# Further structures

Structure (SMILES),"activity change, negative = inhibition",Potency
O=C1CCc2ccc(OCCCCN3CCN(c4cccc(Cl)c4Cl)CC3)cc2N1,,"inconclusive: 6.31 µM [falling, partial curve, poor fit]"
COc1ccc(N2CCN(C(=O)c3ccc(CS(=O)(=O)c4ccc(OC)cc4)o3)CC2)cc1,inconclusive: 0.712%,
CC(C)(C)c1ccc(/C=N/Nc2nncn2N)cc1,,"inconclusive: 35.5 µM [falling, single point]"
CCCCn1nnc(NC(=O)CC23CC4CC(CC(C4)C2)C3)n1,inconclusive: 10.5%,
COc1cc(/C=C2\COC/C(=C\c3ccc(O)c(OC)c3)C2=O)ccc1O,,"inconclusive: 1.58 µM [falling, partial curve]"
Cc1cccc(OCc2nnc(NC(=O)c3cccs3)s2)c1,inconclusive: 20.5%,
C=C(C)C(=O)Nc1cccc(C2=NOC3(C2)C[C@@H](C(N)=O)N(C(=O)C(=C)C)C3)c1 (some centres not stated),inactive: 2.18%,
CC(OC(=O)c1ccc(-c2ccc(O)cc2)cc1)C(=O)NC1CCCCC1C (configuration not stated),,"inconclusive: 0.411 µM [rising, full curve, poor fit]"
COc1ccc(F)c(CN2CCCC(CO)(Cc3cccc(Cl)c3)C2)c1 (configuration not stated),inactive: -1.75%,
O=C1/C(=C/c2cccc([N+](=O)[O-])c2)Oc2cc(O)ccc21,inconclusive: 8.17%,
COc1cccc(C(c2nnnn2Cc2ccco2)N2CCN(c3cccc(C)c3C)CC2)c1OC (configuration not stated),inconclusive: 5.38%,
CC(=O)N1CCN(S(=O)(=O)c2ccc(S(=O)(=O)NCC(C)C)cc2)CC1,inconclusive: 6.09%,
CCOc1nc(-c2ccc(C)cc2)ccc1-c1noc(COC)n1,inactive: 17.6%,
COc1ccc(NC(=O)CC(Cc2ccccc2)C(=O)O)cc1 (configuration not stated),inconclusive: 9.78%,
CC(CCN1CCC(n2nccc2NC(=O)c2ccccc2Cl)CC1)c1ccccc1 (configuration not stated),inconclusive: -6.56%,
CCCCn1c(Cc2ccccc2)n[nH]c1=S,inconclusive: -29.8%,
COc1ccc(CCN2C(=NC(C)=O)SC3CS(=O)(=O)CC32)cc1OC (configuration not stated),inactive: -7.08%,
COc1ccc(/C=N\NC(=O)c2ccccc2)cc1COc1ccc(F)cc1,inconclusive: -23.1%,
COc1ccc(OCCNS(=O)(=O)c2ccccc2)cc1,inconclusive: 3.34%,
CCOC(=O)C1=C(C)N=C2SCCC(=O)N2C1c1cccs1 (configuration not stated),inconclusive: 2.07%,
C=CCOc1c(Br)cc(CNc2ccc(NC(=O)C(C)C)c(OC)c2)cc1OCC,inconclusive: 2.78%,

Structure (SMILES),"activity change, negative = inhibition",Potency
CCCn1c(N)c(N(CCOC)C(=O)COC(=O)c2ccccc2NCCO)c(=O)[nH]c1=O,,"inconclusive: 18.4 µM [falling, partial curve]"
Cc1cc(C)cc(NS(=O)(=O)c2ccc(-c3cnc(C4CC4)o3)cc2)c1,,"inconclusive: 7.94 µM [falling, partial curve]"
CCS(=O)(=O)N1Cc2ccccc2CC1C(=O)Nc1ccc(F)c(F)c1 (configuration not stated),,"inconclusive: 2.51 µM [falling, partial curve, poor fit]"
S=C(NCCN1CCOCC1)N/N=C/c1cccs1,,"inconclusive: 35.5 µM [cytotoxic, partial curve]"
C/C(CC(=O)Nc1cccc(C(F)(F)F)c1)=N\NC(=O)Cc1ccccc1,inconclusive: -3.77%,
CCOc1ccccc1-n1c(SCC(=O)N2CCCc3ccccc32)nnc1-c1cccnc1,inactive: 12.8%,
COc1cc2c(cc1NCc1ccccn1)oc1ccccc12,inconclusive: 2.19%,
COc1ccc(-n2nnc3c(SCC(=O)NCC4CCCO4)ncnc32)cc1 (configuration not stated),,"inconclusive: 22.4 µM [falling, single point]"
Cc1cc(F)ccc1NC(=O)CCc1ccc(S(=O)(=O)N2CCOCC2)cc1,inactive: 1.74%,
O=C1N=c2ccccc2=C1c1sc(NS(=O)(=O)Cc2ccccc2)nc1O,inconclusive: 1.74%,
Cn1cnc2cc(OC(=O)c3ccccc3)ccc21,inconclusive: -12.1%,
Cc1ccc(C(=O)NCC2(c3ccccc3)CCCC2)cc1,inconclusive: 6.15%,
COc1ccc(C(=O)c2sc3nc(C)cc(-c4cccs4)c3c2N)cc1OC,inconclusive: -9.76%,
CCc1ccc2[nH]c(=O)c(CN(Cc3ccccc3)Cc3nnnn3Cc3ccco3)cc2c1,inconclusive: -3.26%,
CN(Cc1nc2ccccc2c(=O)[nH]1)c1ccccc1,inconclusive: -0.738%,
CCOC(=O)c1ccc2c(c1)N(CC)C(=O)c1ccccc1S2,inconclusive: -11.2%,
Cc1ccc(S(=O)(=O)NC(=O)COc2ccccc2)cc1,inconclusive: 1.21%,
c1ccc2c(c1)OC(CCCN1CCCCC1)c1ccccc1S2 (configuration not stated),,"inconclusive: 29.1 µM [falling, single point]"
COC(=O)C1=C(O)/C(=C\c2ccc(CNC(=O)C(=O)Nc3ccc(C)cc3)o2)N=C1C,inconclusive: 25%,
COc1cc2c(c(OC)c1OC)C(c1ccc(O)cc1)CC(=O)O2 (configuration not stated),inconclusive: -17%,
Cc1ccc(-c2cc(C(=O)N3CCOCC3)no2)cc1,,"inconclusive: 35.5 µM [rising, single point]"

Structure (SMILES),"activity change, negative = inhibition",Potency
CN1C(=O)C2(CCCCC2)C1c1ccccc1 (configuration not stated),inactive: 5.83%,
O=C1/C(=C/c2ccncc2)SC(=S)N1N1CCOCC1,inactive: -3.41%,
O=S(=O)(/C=C/c1ccccc1)N1CCN(c2cccc(Cl)c2)CC1,inconclusive: 16.3%,
COc1cc(-c2nc3cnccn3c2Nc2ccc(C)cc2)ccc1O,,"inconclusive: 2.59 µM [falling, full curve]"
Cc1sc(NC(=O)C2C3CCC(O3)C2C(=O)O)c(C(=O)OC(C)C)c1-c1ccc(Cl)cc1 (configuration not stated),inconclusive: -6.31%,
C=CC[C@H](CC(=O)NCCO)C(=O)N[C@H](COC(=O)[C@@H](CC=C)Cc1ccc(F)cc1)C(C)(C)C,inactive: 7.06%,
COc1cc(CN2CC(=O)N(c3cccc(Cl)c3C)C2=S)cc(OC)c1OC,inconclusive: 1.59%,
COc1ccc(OC)c(NC(=O)CSc2ncnc3c2cnn3-c2ccccc2Cl)c1,inconclusive: 13.5%,
CC(=O)Nc1ccc(S(=O)(=O)N2CCC(c3nnc(-c4ccc(C)cc4)o3)CC2)cc1,inactive: -9.69%,
O=C(c1ccco1)N1N=C(c2cccs2)CC1c1cc([N+](=O)[O-])ccc1O (configuration not stated),,"inconclusive: 7.08 µM [rising, partial curve, poor fit]"
COc1ccc(-n2c(SCC(N)=O)nnc2-c2cccnc2)cc1,inconclusive: 11.6%,
Cc1oc2c(cc(NS(=O)(=O)c3ccc(C(C)C)cc3)c3ccccc32)c1C(=O)O,inconclusive: -27.7%,
CN(Cc1c(C(=O)N/N=C/c2cccc(F)c2)nnn1-c1nonc1N)c1ccccc1,inactive: 28.8%,
CSc1cccc(NC(=O)CCc2ccccc2)c1,inconclusive: 6.39%,
Cc1cccc(Oc2nc(CN3CCOCC3)nc3sc4c(c23)CCCC4)c1,inactive: -1.12%,
FC(F)(F)c1cccc(-c2noc(CN3CCOCC3)n2)c1,inconclusive: 0.889%,
CCNC(=O)n1nccc1C(C)Oc1ccccc1 (configuration not stated),inconclusive: 5.95%,
CCCCSc1nc(N)c(C#N)c(-c2cccs2)c1C#N,,"inconclusive: 25.9 µM [rising, partial curve, poor fit]"
CCOC(=O)c1c(NC(=O)C(C)OC(=O)c2ccc(NC(=O)CC#N)cc2)sc2c1CCCC2 (configuration not stated),inconclusive: -2.41%,
